Data: PMC3046439
No constants are given. Whether binding was seen depends on the method and setting. Binding seen in cells or lysates may run through a third protein. Some results given as binding are weak or reduced against the parent protein; the word gives no strength.

The chains behind the UniProt entries cited, without tags or fusion partners.
UniProt P49327: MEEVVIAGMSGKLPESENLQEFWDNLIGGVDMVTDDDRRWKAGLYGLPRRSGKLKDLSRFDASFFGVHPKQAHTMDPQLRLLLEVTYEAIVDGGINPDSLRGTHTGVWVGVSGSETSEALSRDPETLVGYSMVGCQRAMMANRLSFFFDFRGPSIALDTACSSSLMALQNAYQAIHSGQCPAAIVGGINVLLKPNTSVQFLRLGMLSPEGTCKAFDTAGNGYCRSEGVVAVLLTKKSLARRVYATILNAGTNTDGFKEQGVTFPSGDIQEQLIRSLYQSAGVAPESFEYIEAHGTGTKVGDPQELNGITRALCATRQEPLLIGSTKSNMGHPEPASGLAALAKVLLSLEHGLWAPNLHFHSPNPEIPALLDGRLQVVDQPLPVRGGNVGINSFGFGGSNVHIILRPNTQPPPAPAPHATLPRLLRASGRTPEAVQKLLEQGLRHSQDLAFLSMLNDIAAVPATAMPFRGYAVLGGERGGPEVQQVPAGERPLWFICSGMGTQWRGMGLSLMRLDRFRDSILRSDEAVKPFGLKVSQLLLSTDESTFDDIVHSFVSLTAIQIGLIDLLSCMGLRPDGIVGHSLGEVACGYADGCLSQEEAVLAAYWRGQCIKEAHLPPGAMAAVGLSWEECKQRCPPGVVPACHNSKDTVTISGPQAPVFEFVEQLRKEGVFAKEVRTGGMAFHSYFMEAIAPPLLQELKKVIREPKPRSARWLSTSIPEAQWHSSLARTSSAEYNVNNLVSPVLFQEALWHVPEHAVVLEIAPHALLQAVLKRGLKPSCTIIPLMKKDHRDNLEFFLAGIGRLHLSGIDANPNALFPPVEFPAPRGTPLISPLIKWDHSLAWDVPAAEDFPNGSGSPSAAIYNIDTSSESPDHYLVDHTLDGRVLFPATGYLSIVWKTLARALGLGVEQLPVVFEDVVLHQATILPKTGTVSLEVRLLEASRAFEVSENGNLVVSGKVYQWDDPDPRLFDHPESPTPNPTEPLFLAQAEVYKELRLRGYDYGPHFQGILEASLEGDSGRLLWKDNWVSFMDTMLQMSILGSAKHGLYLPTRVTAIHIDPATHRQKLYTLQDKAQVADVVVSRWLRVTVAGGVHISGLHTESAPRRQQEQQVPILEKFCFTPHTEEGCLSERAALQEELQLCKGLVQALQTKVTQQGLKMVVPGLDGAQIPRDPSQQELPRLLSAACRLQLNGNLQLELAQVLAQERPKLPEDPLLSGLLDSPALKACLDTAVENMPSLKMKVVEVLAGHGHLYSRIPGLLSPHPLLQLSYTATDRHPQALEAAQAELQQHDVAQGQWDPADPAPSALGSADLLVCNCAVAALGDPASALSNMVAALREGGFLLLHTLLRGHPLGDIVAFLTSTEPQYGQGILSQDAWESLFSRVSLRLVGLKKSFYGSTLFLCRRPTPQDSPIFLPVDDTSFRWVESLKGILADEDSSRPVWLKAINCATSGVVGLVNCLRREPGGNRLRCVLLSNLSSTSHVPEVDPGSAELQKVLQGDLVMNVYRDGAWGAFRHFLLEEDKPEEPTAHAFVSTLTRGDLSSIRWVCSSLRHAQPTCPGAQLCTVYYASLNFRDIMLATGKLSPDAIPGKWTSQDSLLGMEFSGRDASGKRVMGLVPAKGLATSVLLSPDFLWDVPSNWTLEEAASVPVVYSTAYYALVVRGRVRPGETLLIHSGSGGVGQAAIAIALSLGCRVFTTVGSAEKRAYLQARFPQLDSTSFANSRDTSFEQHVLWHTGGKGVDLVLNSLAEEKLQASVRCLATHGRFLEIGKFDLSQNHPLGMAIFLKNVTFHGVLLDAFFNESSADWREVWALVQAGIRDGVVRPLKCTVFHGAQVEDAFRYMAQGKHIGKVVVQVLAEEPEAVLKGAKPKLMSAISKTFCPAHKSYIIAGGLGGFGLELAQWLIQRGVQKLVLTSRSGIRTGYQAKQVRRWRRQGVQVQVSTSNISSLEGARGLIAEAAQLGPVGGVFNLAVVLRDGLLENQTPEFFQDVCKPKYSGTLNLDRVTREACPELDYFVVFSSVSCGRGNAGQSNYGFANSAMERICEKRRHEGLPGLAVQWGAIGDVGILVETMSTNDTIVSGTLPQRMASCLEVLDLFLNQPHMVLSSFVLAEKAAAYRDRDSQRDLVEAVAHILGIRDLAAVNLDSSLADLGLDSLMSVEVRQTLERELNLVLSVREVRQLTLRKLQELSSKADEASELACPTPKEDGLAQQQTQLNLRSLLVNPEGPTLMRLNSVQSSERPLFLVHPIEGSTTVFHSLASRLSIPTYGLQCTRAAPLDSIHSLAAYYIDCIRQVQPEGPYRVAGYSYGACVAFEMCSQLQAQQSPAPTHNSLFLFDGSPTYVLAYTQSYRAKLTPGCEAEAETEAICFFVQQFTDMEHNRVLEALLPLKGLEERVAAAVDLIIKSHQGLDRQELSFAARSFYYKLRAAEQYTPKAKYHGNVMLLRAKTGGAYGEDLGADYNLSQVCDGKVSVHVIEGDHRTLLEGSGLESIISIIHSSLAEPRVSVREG

Target: fatty acid synthase (FASN) (human (endogenous in SKBR3 and BT474)) (UniProt P49327)
Test: co-IP; FASN immunoprecipitated with 2 ug anti-FASN antibody and protein G agarose from lysates (1% Triton-X 100, 50 mM Tris-Cl pH 8.0, 150 mM NaCl, 5 mM EDTA) of serum-starved SKBR3 and BT474 cells; Western blot for FASN, HER2 and PT66; cells treated with no agent, 50 ng/mL HRG, 1 uM lapatinib, HRG plus lapatinib, 10 uM C75, or HRG plus C75

human epidermal growth factor receptor 2 (HER2) (from UniProt P04626 23-1255)
binding: binds
